Test results: PubChem BioAssay AID2685 (National Center for Advancing Translational Sciences (NCATS), 2010)
Several values for one entry are separate records, joined by “and”; a condition that tells them apart may be missing. Equal values may be shown once. The list shows a part of the results. These are further read-outs of the screen, such as a control signal, another cell line or another target. No call is given for them. Compounds called inactive in the main read-out are mostly missing here. Potencies come from curve fits of mixed quality, noted in brackets.

Assay: qHTS Assay for Lipid Storage Modulators in Drosophila S3 Cells;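 as to cell number change: cells counted by Cell Tracker Red CMTPX staining in the red channel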
Conditions: BODIPY lipid droplet fluorescence, 18-24 h; for cell number change: measured here: cell count max response, cells fed with added oleic acid
Procedure, shortened: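 Drosophila S3 cells got compounds at several concentrations plus oleic acid (400 uM solution). Laser-scanning cytometry with 488 nm excitation read lipid droplets at 500-530 nm and cells at 575-640 nm. Percent activity was relative to 20 uM Triacsin C.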

[1] = measured here: cell number channel AC50, cells fed with added oleic acid
[2] = measured here: lipid fluorescence (Fed channel) AC50, cells fed with added oleic acid

SMILES	cell number change	AC50 [1]	AC50 [2]
COc1ccc(/C=C/C(=O)c2ccc(C)c([N+](=O)[O-])c2)cc1O	-20.4%	–	–
CCOc1ccc(Nc2nc(NCC3CCCO3)c3ccccc3n2)cc1 (stereo not drawn)	-74.9%	16.4 µM [falling, partial curve]	18.4 µM [falling, single point]
COc1ccc(-c2cc(-c3ccc(OC)cc3)nc(-c3ccc4c(c3)NC(=O)CO4)c2)cc1	-18.2%	–	0.291 µM [rising, partial curve, poor fit]
COc1cc(NC(=O)CSCc2ccc(Cl)cc2Cl)c(C(=O)O)cc1OC	-3.3%	–	6.51 µM [rising, single point]
CCC(Sc1ccc2nnc(-c3cccnc3)n2n1)C(=O)OC (stereo not drawn)	-24.4%	–	–
CC(C)(C#N)N([O-])C=C[N+](=O)C(C)(C)C#N	-22.4%	0.0517 µM [falling, full curve, poor fit]	4.11 µM [falling, full curve]
C=C(C)COc1ccc2c3c(c(=O)oc2c1OCC(=C)C)CCC3	-0.917%	–	–
COc1ccccc1CN(Cc1nc2ccccc2c(=O)[nH]1)S(=O)(=O)c1ccc(C)cc1	24%	2.31 µM [rising, full curve, poor fit]	6.51 µM [rising, partial curve]
COc1ccccc1N(CC(=O)Nc1ccc(Cc2ccncc2)cc1)S(=O)(=O)c1ccccc1	–	–	35.5 µM [falling, single point]
Cc1ccc(NC(=O)CN(C)CC(=O)N(CC(C)C)c2c(N)n(CC(C)C)c(=O)[nH]c2=O)c(C)c1	26.3%	–	6.51 µM [rising, full curve]
Cc1ccc(/C=N/NC(=O)CSc2nc3ccccc3n2Cc2ccccc2)o1	6.98%	6.51 µM [rising, single point]	0.0651 µM [rising, full curve]
Cc1ccc(NC(=S)N/N=C2\CC3CC=CC23)c(C)c1 (stereo not drawn)	-21.3%	–	18.4 µM [falling, single point]
COc1ccc(OC)c(CCNC(=O)CC2(CC3=NS(=O)(=O)c4ccccc4N3)CCCC2)c1	-26.3%	–	–
Cc1ccc(-c2cc(C(=O)O)c3cc(Br)ccc3n2)s1	-34% and 3.55%	–	–
Cc1c(NC(=O)c2nn3c(C(F)(F)F)cc(-c4ccccc4)nc3c2Cl)c(=O)n(-c2ccccc2)n1C	34%	13 µM [rising, single point]	–
O=C(COc1ccc(Cl)c2cccnc12)N1CCOCC1	2.81%	–	6.51 µM [rising, partial curve, poor fit]
CCOc1cc(N2CCOCC2)c(OCC)cc1NC(=O)c1cc(-c2ccco2)nc2ccccc12	-58.3%	18.4 µM [falling, partial curve]	32.6 µM [falling, single point]

Individual results from above.
In AC50 [2], COc1ccc(-c2cc(-c3ccc(OC)cc3)nc(-c3ccc4c(c3)NC(=O)CO4)c2)cc1 has the entry 0.291 µM [rising, partial curve, poor fit]
In cell number change, CCC(Sc1ccc2nnc(-c3cccnc3)n2n1)C(=O)OC (stereo not drawn) has the entry -24.4%
